From article PMC6148290, “Endogenous metabolites of vitamin E limit inflammation by targeting 5-lipoxygenase” (Nature Communications, 2018)

Test system: peripheral blood mononuclear cells
Assay: Cell viability of PBMC (MTT assay)
Type: cell-based, human
Conditions: 3 µM; control
Method: The formazan product was solubilized with SDS (10% in 20 mM HCl), and absorbance was measured at 570 nm using a Multiskan Spectrum microplate reader (Thermo Fisher Scientific).

## CN[C@@H]1C[C@H]2O[C@@](C)([C@@H]1OC)n1c3ccccc3c3c4c(c5c6ccccc6n2c5c31)C(=O)NC4 [staurosporine, reference compound]
  inhibition of formazan formation: 71.4 ± 6.2 % inhibition
